Usually EC50 stands for the concentration needed to bring the measured effect to its halfway point. Lower therefore signals greater potency.

Protein sequences, listed by entry. Tags and fused reporters are not part of them. Residues count along the entry.
UniProt J9SQF3, 1-1721 isoform J9SQF3-8: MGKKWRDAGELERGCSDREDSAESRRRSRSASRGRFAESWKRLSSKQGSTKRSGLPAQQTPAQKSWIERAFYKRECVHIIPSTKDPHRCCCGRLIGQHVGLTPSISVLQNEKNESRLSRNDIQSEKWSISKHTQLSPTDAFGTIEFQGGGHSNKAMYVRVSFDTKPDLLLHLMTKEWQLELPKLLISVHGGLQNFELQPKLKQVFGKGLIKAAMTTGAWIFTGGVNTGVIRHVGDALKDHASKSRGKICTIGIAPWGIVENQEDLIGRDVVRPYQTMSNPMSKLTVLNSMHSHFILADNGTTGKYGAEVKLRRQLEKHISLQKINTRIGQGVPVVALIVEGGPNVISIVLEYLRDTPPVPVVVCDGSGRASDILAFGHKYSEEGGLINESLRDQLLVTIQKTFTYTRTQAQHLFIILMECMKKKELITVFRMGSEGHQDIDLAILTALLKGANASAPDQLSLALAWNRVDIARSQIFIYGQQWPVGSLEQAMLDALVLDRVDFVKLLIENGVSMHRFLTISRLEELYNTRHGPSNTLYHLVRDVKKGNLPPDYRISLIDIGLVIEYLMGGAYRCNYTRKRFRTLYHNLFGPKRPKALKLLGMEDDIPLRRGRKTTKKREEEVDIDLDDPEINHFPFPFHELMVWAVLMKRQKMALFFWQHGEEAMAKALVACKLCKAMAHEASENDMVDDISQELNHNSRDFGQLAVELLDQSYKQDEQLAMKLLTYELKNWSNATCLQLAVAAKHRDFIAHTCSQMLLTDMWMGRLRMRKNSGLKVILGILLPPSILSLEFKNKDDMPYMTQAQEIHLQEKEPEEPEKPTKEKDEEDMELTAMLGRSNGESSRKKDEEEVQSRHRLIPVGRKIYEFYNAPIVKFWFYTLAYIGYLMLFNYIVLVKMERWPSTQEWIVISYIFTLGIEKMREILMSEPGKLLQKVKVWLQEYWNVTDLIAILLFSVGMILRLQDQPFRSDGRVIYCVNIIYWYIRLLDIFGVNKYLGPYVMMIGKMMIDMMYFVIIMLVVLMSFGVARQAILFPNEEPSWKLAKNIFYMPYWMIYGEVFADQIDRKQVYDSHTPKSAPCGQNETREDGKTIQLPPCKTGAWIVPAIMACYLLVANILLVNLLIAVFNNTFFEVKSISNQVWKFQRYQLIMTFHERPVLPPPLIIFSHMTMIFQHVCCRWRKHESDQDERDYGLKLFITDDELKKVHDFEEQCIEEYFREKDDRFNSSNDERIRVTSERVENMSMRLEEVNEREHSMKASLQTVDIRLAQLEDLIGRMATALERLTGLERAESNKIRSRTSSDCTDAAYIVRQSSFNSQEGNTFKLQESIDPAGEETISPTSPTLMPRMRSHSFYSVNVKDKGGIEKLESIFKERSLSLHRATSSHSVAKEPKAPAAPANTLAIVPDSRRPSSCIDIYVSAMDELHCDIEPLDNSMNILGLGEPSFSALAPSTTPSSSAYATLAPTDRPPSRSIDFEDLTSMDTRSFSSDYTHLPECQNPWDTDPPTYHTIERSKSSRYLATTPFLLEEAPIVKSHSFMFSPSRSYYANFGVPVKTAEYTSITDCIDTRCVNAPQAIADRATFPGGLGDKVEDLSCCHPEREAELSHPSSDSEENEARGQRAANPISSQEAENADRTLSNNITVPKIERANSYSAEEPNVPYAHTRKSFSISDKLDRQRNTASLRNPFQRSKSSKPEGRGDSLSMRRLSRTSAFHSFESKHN

The assay has as its target TRPM3α1 (Mus musculus, UniProt J9SQF3). The experiment in a line: Whole-cell patch clamp, HEK293T cells expressing TRPM3α1. The assay is classed as cell-based. On the technique in general: The patch-clamp technique gives a direct electrical read-out from membranes.

Take `Clc1ccccc1C(c1ccccc1)(c1ccccc1)n1ccnc1` [clotrimazole, Clotrimazole]: the EC50 turned out to be 3 µM.

The values are drawn from paper PMC9290681 (British Journal of Pharmacology, 2020).
